For at least one entry, the source does not settle the construct or the ends of the probe. Weaker means in comparison with the reference protein, sequence or condition of that experiment.
How the values were obtained:
[1] = biological target: cSID1 K43A + K45A (Caenorhabditis elegans) (UniProt Q9GZC8); experiment: EMSA; conditions: 0-24 uM protein, 1 uM dsRNA, binding almost completely eliminated; EMSA: 25 mM Tris pH 8.0, 25 mM NaCl, room temperature, 60 min, 6% native gel in 0.5x TBE; recombinant protein; protein details: His6 and FLAG after the signal peptide
[2] = biological target: cSID1 K193A + K198A (Caenorhabditis elegans) (UniProt Q9GZC8); experiment: EMSA; conditions: 0-24 uM protein, 1 uM dsRNA, binding almost completely eliminated; EMSA: 25 mM Tris pH 8.0, 25 mM NaCl, room temperature, 60 min, 6% native gel in 0.5x TBE; recombinant protein; protein details: His6 and FLAG after the signal peptide

Amino acid sequences for entries named in this document (tags omitted). Residues count along the entry.
UniProt Q9GZC8, 18-776 K43A/K45A: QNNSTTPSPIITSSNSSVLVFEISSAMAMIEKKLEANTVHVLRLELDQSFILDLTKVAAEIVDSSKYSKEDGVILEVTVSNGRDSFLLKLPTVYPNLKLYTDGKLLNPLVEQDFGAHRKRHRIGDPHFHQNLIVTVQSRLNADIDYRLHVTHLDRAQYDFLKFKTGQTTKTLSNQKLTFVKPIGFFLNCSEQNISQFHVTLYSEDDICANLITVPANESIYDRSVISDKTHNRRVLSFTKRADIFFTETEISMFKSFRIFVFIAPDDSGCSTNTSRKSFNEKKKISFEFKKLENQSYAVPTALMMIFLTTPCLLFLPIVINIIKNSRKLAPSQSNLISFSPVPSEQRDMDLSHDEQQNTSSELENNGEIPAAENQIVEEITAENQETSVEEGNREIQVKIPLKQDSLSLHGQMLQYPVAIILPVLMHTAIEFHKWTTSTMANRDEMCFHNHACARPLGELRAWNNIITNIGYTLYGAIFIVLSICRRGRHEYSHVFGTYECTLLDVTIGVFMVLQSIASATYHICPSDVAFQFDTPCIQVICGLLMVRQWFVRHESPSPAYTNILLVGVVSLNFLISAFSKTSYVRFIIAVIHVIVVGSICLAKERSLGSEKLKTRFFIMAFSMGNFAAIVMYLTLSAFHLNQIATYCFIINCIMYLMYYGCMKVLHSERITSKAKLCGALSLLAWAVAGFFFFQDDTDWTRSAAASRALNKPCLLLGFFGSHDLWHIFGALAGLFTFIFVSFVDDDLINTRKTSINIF
UniProt Q9GZC8, 18-776 K193A/K198A: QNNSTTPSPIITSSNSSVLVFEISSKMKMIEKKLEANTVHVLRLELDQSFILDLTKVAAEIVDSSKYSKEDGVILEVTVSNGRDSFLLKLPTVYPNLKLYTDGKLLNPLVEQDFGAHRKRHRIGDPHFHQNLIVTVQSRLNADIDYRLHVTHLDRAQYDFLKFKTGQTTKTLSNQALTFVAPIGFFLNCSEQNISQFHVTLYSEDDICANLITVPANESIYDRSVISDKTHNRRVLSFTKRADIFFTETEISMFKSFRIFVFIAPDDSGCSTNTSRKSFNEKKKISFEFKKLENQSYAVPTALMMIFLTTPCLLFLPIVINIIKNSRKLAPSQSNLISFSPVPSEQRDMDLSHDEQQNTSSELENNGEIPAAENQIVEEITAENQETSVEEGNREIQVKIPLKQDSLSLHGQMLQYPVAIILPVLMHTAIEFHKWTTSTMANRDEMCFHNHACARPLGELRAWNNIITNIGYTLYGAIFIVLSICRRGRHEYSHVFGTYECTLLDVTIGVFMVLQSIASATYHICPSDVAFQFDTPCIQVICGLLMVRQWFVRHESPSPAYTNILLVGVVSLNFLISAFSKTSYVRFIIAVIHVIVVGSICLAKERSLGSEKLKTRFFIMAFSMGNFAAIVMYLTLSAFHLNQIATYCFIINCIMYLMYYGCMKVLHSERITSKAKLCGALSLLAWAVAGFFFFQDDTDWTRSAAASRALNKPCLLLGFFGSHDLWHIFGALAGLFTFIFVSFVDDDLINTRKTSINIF

GGCCGGGGGACGGGCUGGGAUGACAGAAGUCGCUUGGUGCAGAUCGGGAC / GUCCCGAUCUGCACCAAGCGACUUCUGUCAUCCCAGCCCGUCCCCCGGCC [FAM 50-bp dsRNA]
binding result [1]: binds more weakly | binding result [2]: binds more weakly

Source: publication PMC11194109
